For at least one entry, the source does not settle the construct or the ends of the probe.

The test system of data set [1] is AhNIN1 C-terminal (Arachis hypogaea). Put plainly: EMSA. Particulars: ~4.5 ug protein; recombinant protein. (In general: A gel shift assay detects complexes by their altered migration in electrophoresis.)
Data set [2] relates to AhNIN2 C-terminal (Arachis hypogaea). Put plainly: EMSA. Particulars: ~4.5 ug protein; recombinant protein.

For the sequence “AATGGCTTCTTGCTAGCTCCATTATTGCATGCCATGAAAAGCCAAC (double strand) [AhLgh1 NRCE probe P1]”, the binding result in data set [1] and in data set [2] was “binds” in each case.

Values taken from doi:10.1101/2025.11.03.684091.
